Experimental data: patent publication US20110250130A1 (AbbVie / Abbott, published 2011)

Molecular target: Recombinant Human TNF-α/TNFSF1A (human)
Assay: SPR (Biacore)

- binding: binds
B1: AB248 (antibody, V domains shown)
VH: EVQLQESGPGLVKPSETLSLTCTVSGFSLSDYGVNWIRQPPGKGLEWIGMIWGDGSTDYDSTLKSRVTISKDTSKNQFSLKLSSVTAADTAVYYCAREWHHGPVAYWGQGTLVTVSS
VL: DIQMTQSPSSLSASVGDRVTITCKASQAVSSAVAWYQQKPGKAPKLLIYWASTRHTGVPSRFSGSGSGTDFTLTISSLQPEDFATYYCQQHYSTPFTFGQGTKLEIK
notes: also called hMAK195VH.1b / hMAK195VL.1

- binding: binds
B2: AB250 (antibody, V domains shown)
VH: B1 VH
VL: EIVMTQSPATLSLSPGERATLSCKASQAVSSAVAWYQQKPGQAPRLLIYWASTRHTGIPARFSGSGSGTDFTLTISSLQPEDFAVYYCQQHYSTPFTFGQGTKLEIK
notes: also called hMAK195VH.1b / hMAK195VL.2

- binding: binds
B3: AB260 (antibody, V domains shown)
VH: EVQLVESGGGLVQPGGSLRLSCAASGFTLSDYGVNWVRQAPGKGLEWVSMIWGDGSTDYDSTLKSRFTISKDNSKNTLYLQMNSLRAEDTAVYYCAREWHHGPVAYWGQGTLVTVSS
VL: B1 VL
notes: also called hMAK195VH.2b / hMAK195VL.1

- binding: binds
B4: AB256 (antibody, V domains shown)
VH: B3 VH with A24V, V48L, S49G, F67L, N76S, L78I
VL: B1 VL
notes: also called hMAK195VH.2a / hMAK195VL.1

- binding: binds
B5: AB257 (antibody, V domains shown)
VH: B3 VH with A24V, V48L, S49G, F67L, N76S, L78I
VL: B1 VL with A43S
notes: also called hMAK195VH.2a / hMAK195VL.1a

- binding: binds
B6: AB246 (antibody, V domains shown)
VH: B1 VH with I37V, I48L, V67L, T73N, N76S, F78I
VL: B2 VL
notes: also called hMAK195VH.1a / hMAK195VL.2

- binding: binds
B7: AB252 (antibody, V domains shown)
VH: B3 VH with L29F, K71R
VL: B1 VL
notes: also called hMAK195VH.2 / hMAK195VL.1

- binding: binds
B8: AB245 (antibody, V domains shown)
VH: B1 VH with I37V, I48L, V67L, T73N, N76S, F78I
VL: B1 VL with A43S
notes: also called hMAK195VH.1a / hMAK195VL.1a

- binding: binds
B9: AB247 (antibody, V domains shown)
VH: B1 VH with I37V, I48L, V67L, T73N, N76S, F78I
VL: B2 VL with A43S, I58V
notes: also called hMAK195VH.1a / hMAK195VL.2a

- binding: binds
B10: AB249 (antibody, V domains shown)
VH: B1 VH
VL: B1 VL with A43S
notes: also called A3249; hMAK195VH.1b / hMAK195VL.1a

- binding: binds
B11: AB244 (antibody, V domains shown)
VH: B1 VH with I37V, I48L, V67L, T73N, N76S, F78I
VL: B1 VL
notes: also called hMAK195VH.1a / hMAK195VL.1

- binding: binds
B12: AB261 (antibody, V domains shown)
VH: B3 VH
VL: B1 VL with A43S
notes: also called hMAK195VH.2b / hMAK195VL.1a

- binding: binds
B13: AB240 (antibody, V domains shown)
VH: B1 VH with F27G, L29I, K71V
VL: B1 VL
notes: also called hMAK195VH.1 / hMAK195VL.1

- binding: binds
B14: AB253 (antibody, V domains shown)
VH: B3 VH with L29F, K71R
VL: B1 VL with A43S
notes: also called hMAK195VH.2 / hMAK195VL.1a

- binding: binds
B15: AB241 (antibody, V domains shown)
VH: B1 VH with F27G, L29I, K71V
VL: B1 VL with A43S
notes: also called hMAK195VH.1 / hMAK195VL.1a

- binding: binds
B16: AB243 (antibody, V domains shown)
VH: B1 VH with F27G, L29I, K71V
VL: B2 VL with A43S, I58V
notes: also called hMAK195VH.1 / hMAK195VL.2a

- binding: binds
B17: AB242 (antibody, V domains shown)
VH: B1 VH with F27G, L29I, K71V
VL: B2 VL
notes: also called hMAK195VH.1 / hMAK195VL.2

- binding: binds
B18: AB251 (antibody, V domains shown)
VH: B1 VH
VL: B2 VL with A43S, I58V
notes: also called hMAK195VH.1b / hMAK195VL.2a

- binding: binds
B19: murine anti-human TNF-α monoclonal antibody MAK195 (antibody, V domains shown)
VH: QVQLKESGPGLVAPSQSLSITCTVSGFSLTDYGVNWVRQPPGKGLEWLGMIWGDGSTDYDSTLKSRLSISKDNSKSQIFLKMNSLQTDDTARYYCAREWHHGPVAYWGQGTLVTVSA
VL: DIVMTQSHKFMSTTVGDRVSITCKASQAVSSAVAWYQQKPGQSPKLLIYWASTRHTGVPDRFTGSGSVTDFTLTIHNLQAEDLALYYCQQHYSTPFTFGSGTKLEIKR

- binding: binds
B20: AB262 (antibody, V domains shown)
VH: B3 VH
VL: B2 VL
notes: also called hMAK195VH.2b / hMAK195VL.2

- binding: binds
B21: AB259 (antibody, V domains shown)
VH: B3 VH with A24V, V48L, S49G, F67L, N76S, L78I
VL: B2 VL with A43S, I58V
notes: also called hMAK195VH.2a / hMAK195VL.2a

- binding: binds
B22: AB258 (antibody, V domains shown)
VH: B3 VH with A24V, V48L, S49G, F67L, N76S, L78I
VL: B2 VL
notes: also called hMAK195VH.2a / hMAK195VL.2

- binding: binds
B23: AB263 (antibody, V domains shown)
VH: B3 VH
VL: B2 VL with A43S, I58V
notes: also called hMAK195VH.2b / hMAK195VL.2a

- binding: binds
B24: AB254 (antibody, V domains shown)
VH: B3 VH with L29F, K71R
VL: B2 VL
notes: also called hMAK195VH.2 / hMAK195VL.2

- binding: binds
B25: AB255 (antibody, V domains shown)
VH: B3 VH with L29F, K71R
VL: B2 VL with A43S, I58V
notes: also called hMAK195VH.2 / hMAK195VL.2a

Changes are numbered by the printed parent chain. Results are given in words; binding and its absence hold for the method and conditions named. Binding calls can cover weak binding; strength is not graded here. Each block holds one binder with its values, some of them ahead of it.
